This passage reports binding results from article doi:10.1101/2025.07.25.666749.

Results are given in words; binding and its absence hold for the method and conditions named. Binding seen in cells or lysates may run through a third protein. Here binding means that the protein was enriched with, or labelled near, the bait; the list need not be complete.

B1: Stau2 (protein, UniProt Q9NUL3 1-570)
chain: MANPKEKTAMCLVNELARFNRVQPQYKLLNERGPAHSKMFSVQLSLGEQTWESEGSSIKKAQQAVANKALTESTLPKPVQKPPKSNVNNNPGSITPTVELNGLAMKRGEPAIYRPLDPKPFPNYRANYNFRGMYNQRYHCPVPKIFYVQLTVGNNEFFGEGKTRQAARHNAAMKALQALQNEPIPERSPQNGESGKDVDDDKDANKSEISLVFEIALKRNMPVSFEVIKESGPPHMKSFVTRVSVGEFSAEGEGNSKKLSKKRAATTVLQELKKLPPLPVVEKPKLFFKKRPKTIVKAGPEYGQGMNPISRLAQIQQAKKEKEPDYVLLSERGMPRRREFVMQVKVGNEVATGTGPNKKIAKKNAAEAMLLQLGYKASTNLQDQLEKTGENKGWSGPKPGFPEPTNNTPKGILHLSPDVYQEMEASRHKVISGTTLGYLSPKDMNQPSSSFFSISPTSNSSATIARELLMNGTSSTAEAIGLKGSSPTPPCSPVQPSKQLEYLARIQGFQAALSALKQFSEQGLDPIDGAMNIEKGSLEKQAKHLREKADNNQAPPGSIAQDCKKSNSAV
B2: HAUS3 (protein, UniProt Q68CZ6 1-603)
chain: MSCGNEFVETLKKIGYPKADNLNGEDFDWLFEGVEDESFLKWFCGNVNEQNVLSERELEAFSILQKSGKPILEGAALDEALKTCKTSDLKTPRLDDKELEKLEDEVQTLLKLKNLKIQRRNKCQLMASVTSHKSLRLNAKEEEATKKLKQSQGILNAMITKISNELQALTDEVTQLMMFFRHSNLGQGTNPLVFLSQFSLEKYLSQEEQSTAALTLYTKKQFFQGIHEVVESSNEDNFQLLDIQTPSICDNQEILEERRLEMARLQLAYICAQHQLIHLKASNSSMKSSIKWAEESLHSLTSKAVDKENLDAKISSLTSEIMKLEKEVTQIKDRSLPAVVRENAQLLNMPVVKGDFDLQIAKQDYYTARQELVLNQLIKQKASFELLQLSYEIELRKHRDIYRQLENLVQELSQSNMMLYKQLEMLTDPSVSQQINPRNTIDTKDYSTHRLYQVLEGENKKKELFLTHGNLEEVAEKLKQNISLVQDQLAVSAQEHSFFLSKRNKDVDMLCDTLYQGGNQLLLSDQELTEQFHKVESQLNKLNHLLTDILADVKTKRKTLANNKLHQMEREFYVYFLKDEDYLKDIVENLETQSKIKAVSLED
B3: NFKBIE (protein, UniProt O00221 1-500)
chain: MNQRRSESRPGNHRLQAYAEPGKGDSGGAGPLSGSARRGRGGGGAIRVRRPCWSGGAGRGGGPAWAVRLPTVTAGWTWPALRTLSSLRAGPSEPHSPGRRPPRAGRPLCQADPQPGKAARRSLEPDPAQTGPRPARAAGMSEARKGPDEAEESQYDSGIESLRSLRSLPESTSAPASGPSDGSPQPCTHPPGPVKEPQEKEDADGERADSTYGSSSLTYTLSLLGGPEAEDPAPRLPLPHVGALSPQQLEALTYISEDGDTLVHLAVIHEAPAVLLCCLALLPQEVLDIQNNLYQTALHLAVHLDQPGAVRALVLKGASRALQDRHGDTALHVACQRQHLACARCLLEGRPEPGRGTSHSLDLQLQNWQGLACLHIATLQKNQPLMELLLRNGADIDVQEGTSGKTALHLAVETQERGLVQFLLQAGAQVDARMLNGCTPLHLAAGRGLMGISSTLCKAGADSLLRNVEDETPQDLTEESLVLLPFDDLKISGKLLLCTD
B4: FAM120A (protein, UniProt Q9NZB2 1-1118)
chain: MGVQGFQDYIEKHCPSAVVPVELQKLARGSLVGGGRQRPPQTPLRLLVDADNCLHRLYGGFYTDWVSGGQWNHMLGYLAALAKACFGGNIELFVFFNGALEKARLHEWVKRQGNERQTAQQIVSHVQNKGTPPPKVWFLPPVCMAHCIRLALIRFHVKVAQSIEDHHQEVIGFCRENGFHGLVAYDSDYALCNIPYYFSAHALKLSRNGKSLTTSQYLMHEVAKQLDLNPNRFPIFAALLGNHILPDEDLASFHWSLLGPEHPLASLKVRAHQLVLPPCDVVIKAVADYVRNIQDTSDLDAIAKDVFQHSQSRTDDKVIRFKRAIGYYSATSKPMSFHPPHYLAARPGPFGMPGMVPPHVPPQMLNIPQTSLQAKPVAPQVPSPGGAPGQGPYPYSLSEPAPLTLDTSGKNLTEQNSYSNIPHEGKHTPLYERSSPINPAQSGSPNHVDSAYFPGSSTSSSSDNDEGSGGATNHISGNKIGWEKTGSHSEPQARGDPGDQTKAEGSSTASSGSQLAEGKGSQMGTVQPIPCLLSMPTRNHMDITTPPLPPVAPEVLRVAEHRHKKGLMYPYIFHVLTKGEIKIAVSIEDEANKDLPPAALLYRPVRQYVYGVLFSLAESRKKTERLAFRKNRLPPEFSPVIIKEWAAYKGKSPQTPELVEALAFREWTCPNLKRLWLGKAVEDKNRRMRAFLACMRSDTPAMLNPANVPTHLMVLCCVLRYMVQWPGARILRRQELDAFLAQALSPKLYEPDQLQELKIENLDPRGIQLSALFMSGVDMALFANDACGQPIPWEHCCPWMYFDGKLFQSKLLKASREKTPLIDLCDGQADQAAKVEKMRQSVLEGLSFSRQSHTLPFPPPPALPFYPASAYPRHFGPVPPSQGRGRGFAGVCGFGGPYGETVATGPYRAFRVAAASGHCGAFSGSDSSRTSKSQGGVQPIPSQGGKLEIAGTVVGHWAGSRRGRGGRGPFPLQVVSVGGPARGRPRGVISTPVIRTFGRGGRYYGRGYKNQAAIQGRPPYAASAEEVAKELKSKSGESKSSAMSSDGSLAENGVMAEEKPAPQMNGSTGDARAPSHSESALNNDSKTCNTNPHLNALSTDSACRREAALEAAVLNKEE
B5: WDR11 (protein, UniProt Q9BZH6 1-1224)
chain: MLPYTVNFKVSARTLTGALNAHNKAAVDWGWQGLIAYGCHSLVVVIDSITAQTLQVLEKHKADVVKVKWARENYHHNIGSPYCLRLASADVNGKIIVWDVAAGVAQCEIQEHAKPIQDVQWLWNQDASRDLLLAIHPPNYIVLWNADTGTKLWKKSYADNILSFSFDPFDPSHLTLLTSEGIVFISDFSPSKPPSGPGKKVYISSPHSSPAHNKLATATGAKKALNKVKILITQEKPSAEFITLNDCLQLAYLPSKRNHMLLLYPREILILDLEVNQTVGVIAIERTGVPFLQVIPCFQRDGLFCLHENGCITLRVRRSYNNIFTTSNEEPDPDPVQELTYDLRSQCDAIRVTKTVRPFSMVCCPVNENAAALVVSDGRVMIWELKSAVCNRNSRNSSSGVSPLYSPVSFCGIPVGVLQNKLPDLSLDNMIGQSAIAGEEHPRGSILREVHLKFLLTGLLSGLPAPQFAIRMCPPLTTKNIKMYQPLLAVGTSNGSVLVYHLTSGLLHKELSIHSCEVKGIEWTSLTSFLSFATSTPNNMGLVRNELQLVDLPTGRSIAFRGERGNDESAIEMIKVSHLKQYLAVVFRDKPLELWDVRTCTLLREMSKNFPTITALEWSPSHNLKSLRKKQLATREAMARQTVVSDTELSIVESSVISLLQEAESKSELSQNISAREHFVFTDIDGQVYHLTVEGNSVKDSARIPPDGSMGSITCIAWKGDTLVLGDMDGNLNFWDLKGRVSRGIPTHRSWVRKIRFAPGKGNQKLIAMYNDGAEVWDTKEVQMVSSLRSGRNVTFRILDVDWCTSDKVILASDDGCIRVLEMSMKSACFRMDEQELTEPVWCPYLLVPRASLALKAFLLHQPWNGQYSLDISHVDYPENEEIKNLLQEQLNSLSNDIKKLLLDPEFTLLQRCLLVSRLYGDESELHFWTVAAHYLHSLSQEKSASTTAPKEAAPRDKLSNPLDICYDVLCENAYFQKFQLERVNLQEVKRSTYDHTRKCTDQLLLLGQTDRAVQLLLETSADNQHYYCDSLKACLVTTVTSSGPSQSTIKLVATNMIANGKLAEGVQLLCLIDKAADACRYLQTYGEWNRAAWLAKVRLNPEECADVLRRWVDHLCSPQVNQKSKALLVLLSLGCFFSVAETLHSMRYFDRAALFVEACLKYGAFEVTEDTEKLITAIYADYARSLKNLGFKQGAVLFASKAGAAGKDLLNELESPKEEPIEE
B6: HAUS5 (protein, UniProt O94927 1-633)
chain: MELAQEARELGCWAVEEMGVPVAARAPESTLRRLCLGQGADIWAYILQHVHSQRTVKKIRGNLLWYGHQDSPQVRRKLELEAAVTRLRAEIQELDQSLELMERDTEAQDTAMEQARQHTQDTQRRALLLRAQAGAMRRQQHTLRDPMQRLQNQLRRLQDMERKAKVDVTFGSLTSAALGLEPVVLRDVRTACTLRAQFLQNLLLPQAKRGSLPTPHDDHFGTSYQQWLSSVETLLTNHPPGHVLAALEHLAAEREAEIRSLCSGDGLGDTEISRPQAPDQSDSSQTLPSMVHLIQEGWRTVGVLVSQRSTLLKERQVLTQRLQGLVEEVERRVLGSSERQVLILGLRRCCLWTELKALHDQSQELQDAAGHRQLLLRELQAKQQRILHWRQLVEETQEQVRLLIKGNSASKTRLCRSPGEVLALVQRKVVPTFEAVAPQSRELLRCLEEEVRHLPHILLGTLLRHRPGELKPLPTVLPSIHQLHPASPRGSSFIALSHKLGLPPGKASELLLPAAASLRQDLLLLQDQRSLWCWDLLHMKTSLPPGLPTQELLQIQASQEKQQKENLGQALKRLEKLLKQALERIPELQGIVGDWWEQPGQAALSEELCQGLSLPQWRLRWVQAQGALQKLCS
B7: RBM27 (protein, UniProt Q9P2N5 1-1060)
chain: MLIEDVDALKSWLAKLLEPICDADPSALANYVVALVKKDKPEKELKAFCADQLDVFLQKETSGFVDKLFESLYTKNYLPLLEPVKPEPKPLVQEKEEIKEEVFQEPAEEERDGRKKKYPSPQKTRSESSERRTREKKREDGKWRDYDRYYERNELYREKYDWRRGRSKSRSKSRGLSRSRSRSRGRSKDRDPNRNVEHRERSKFKSERNDLESSYVPVSAPPPNSSEQYSSGAQSIPSTVTVIAPAHHSENTTESWSNYYNNHSSSNSFGRNLPPKRRCRDYDERGFCVLGDLCQFDHGNDPLVVDEVALPSMIPFPPPPPGLPPPPPPGMLMPPMPGPGPGPGPGPGPGPGPGPGPGHSMRLPVPQGHGQPPPSVVLPIPRPPITQSSLINSRDQPGTSAVPNLASVGTRLPPPLPQNLLYTVSERQPMYSREHGAAASERLQLGTPPPLLAARLVPPRNLMGSSIGYHTSVSSPTPLVPDTYEPDGYNPEAPSITSSGRSQYRQFFSRTQTQRPNLIGLTSGDMDVNPRAANIVIQTEPPVPVSINSNITRVVLEPDSRKRAMSGLEGPLTKKPWLGKQGNNNQNKPGFLRKNQYTNTKLEVKKIPQELNNITKLNEHFSKFGTIVNIQVAFKGDPEAALIQYLTNEEARKAISSTEAVLNNRFIRVLWHRENNEQPTLQSSAQLLLQQQQTLSHLSQQHHHLPQHLHQQQVLVAQSAPSTVHGGIQKMMSKPQTSGAYVLNKVPVKHRLGHAGGNQSDASHLLNQSGGAGEDCQIFSTPGHPKMIYSSSNLKTPSKLCSGSKSHDVQEVLKKKQEAMKLQQDMRKKRQEVLEKQIECQKMLISKLEKNKNMKPEERANIMKTLKELGEKISQLKDELKTSSAVSTPSKVKTKTEAQKELLDTELDLHKRLSSGEDTTELRKKLSQLQVEAARLGILPVGRGKTMSSQGRGRGRGRGGRGRGSLNHMVVDHRPKALTVGGFIEEEKEDLLQHFSTANQGPKFKDRRLQISWHKPKVPSISTETEEEEVKEEETETSDLFLPDDDDEDEDEYESRSWRR

In the test the target is T1, ZFP36L1 (endogenous) (human (endogenous in primary T cells)) (UniProt Q07352).
T1 sequence: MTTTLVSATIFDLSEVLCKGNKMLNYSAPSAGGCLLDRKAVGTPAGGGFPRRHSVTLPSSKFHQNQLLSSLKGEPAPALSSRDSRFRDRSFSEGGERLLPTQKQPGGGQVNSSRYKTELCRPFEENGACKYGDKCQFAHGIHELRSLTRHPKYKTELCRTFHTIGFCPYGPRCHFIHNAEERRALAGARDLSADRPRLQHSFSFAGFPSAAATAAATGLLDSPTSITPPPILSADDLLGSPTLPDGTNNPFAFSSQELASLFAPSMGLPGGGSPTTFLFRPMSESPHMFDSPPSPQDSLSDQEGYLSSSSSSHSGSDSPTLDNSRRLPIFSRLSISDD
Kind of test: affinity purification with mass spectrometry.
For the molecule B1, the binding result is recorded as “binds”.
Take B2: the binding result is given as “binds”.
For B3, the binding result is recorded as “binds”.
Under B4 stands “binds”; under B5, “binds”.
With B6, the binding entry was “binds”.
Consider B7, for which the binding entry is listed as “binds”.
